Data as given in US20240190918A1, “FIBRIL PEPTIDES” (Universität Ulm, priority 2021, published 2024).
Entries after “also recorded” stand apart in the source; their conditions may differ. At least one peptide structure holds a part that was inferred or is arguable (an end, a ring closure or a residue). Some of these results come from one statement about several compounds together. Peptide text beside a SMILES is read from it.

Key:
[1] = Zeta potential of peptide nanofibrils; assay type: physicochemical; settings: peptides incubated at RT for 10 min
Protocol: FIG. 1: Human interleukin-18 (IL-18) derived peptides form nanofibrils. (A) Table displaying sequences, physical and chemical parameters of peptides derived from IL-18. The positively charged amino acids are written in italics. (B) ThT fluorescence of the tested peptides and EF-C (Protransduzin®-A) which were incubated at RT for 10 min. (C) Zeta potential of peptides which were incubated at RT for 10 min. Shown are average values (±SD) of duplicates from two independent experiments. (D-J) Transmission electron microscopy images of EF-C (D), RK-10 (E-F), RM-8 (G-H), RS-7 (I), and FK-7 (J). […]
FIG. 5: RM-8 analogs from alanine scanning form positively charged nanofibrils. […] (B) ThT fluorescence of alanine scanning derived peptides, RM-8, QH-9 and EF-C. […]
Peptides derived from human interleukin-18 were identified by an in silico-screening approach where the human protein interleukin-18 (Q14116) was analyzed by the amyloid prediction tools ZipperDB, TANGO 2.0 and PASTA (FIG. 1A). To examine if these endogenous peptides form nanofibrils, the freshly prepared peptides were incubated with the amyloid specific dye Thioflavin T (ThT), which fluorescence increases upon binding to amyloid fibrils. […] To determine if the IL-18 peptides have the ability to form positively charged fibrils the zeta potential was measured.

[2] = ATR-FTIR spectroscopy, secondary structure of fibrils; assay type: physicochemical; settings: 1 mg/ml in PBS, RT 10 min
[3] = Conversion rate (CR) of peptide monomers into fibrils; assay type: physicochemical; settings: 1 mg/ml in PBS, RT 10 min
VSV-G pseudotyped LVs = assay type: cell-based
[4] = system: Lentiviral vectors pseudotyped with a modified RD114/TR envelope glycoprotein; assay type: cell-based; settings: HEK293T cells, three days
GALV-γ-RV [5] = test: GALV-γ-RV transduction of activated human CD4+ and CD8+ T cells (CAR T cell like process); assay type: cell-based; settings: RM-8 50 μg/ml, Vectofusin-1 10 μg/ml, RetroNectin 20 μg/ml; 7 days
GALV-γ-RV [6] = test: GALV-γ-RV infection of Jurkat cells, GFP+ cells by flow cytometry; settings: for GFP positive cells (maximal): control around 1%
R5-tropic HIV-1 = test: HIV-1 infection of TZM-bl cells, Tat-inducible β-galactosidase activity; settings: serially diluted peptides, 3 days

Compound | zeta potential (sign) [1] | β-sheet content [2] | conversion rate (CR) [3] [%] | transduction rates of VSV-G pseudotyped LVs (VSV-G pseudotyped LVs) | gene delivery rates, RD114/TR LV [4] | transduction efficiency of T cells (GALV-γ-RV [5]) | n-fold increase in GALV-γ-RV infection (GALV-γ-RV [6]; GALV-γ-RV particles increased by a factor of 10) [fold] | GFP positive cells (GALV-γ-RV [6]; GALV-γ-RV particles increased by a factor of 10, control 5.4%) | enhancing activity on GALV-γ-RV infection (in words) (GALV-γ-RV [6]; two days) | GFP positive cells (maximal) (GALV-γ-RV [6]; two days) | enhancement of HIV-1 infection (in words) (R5-tropic HIV-1)
CC[C@H](C)[C@H](NC(=O)[C@H](Cc1ccccc1)NC(=O)[C@@H](NC(=O)[C@@H](NC(=O)[C@@H](N)CCCNC(=N)N)[C@@H](C)O)[C@@H](C)CC)C(=O)N[C@H](C(=O)N[C@@H](CO)C(=O)N[C@@H](CCSC)C(=O)O)[C@@H](C)CC [RM-8, RTIFIISM] (H-RTIFIISM-OH) | positive zeta potential | approximately 75.9±3.4% | 97.0±2.6 | higher efficiency than Vectofusin®-1; also recorded: enhanced transduction rates | much higher gene delivery rates than Vectofusin®-1 | higher transduction efficiency than Vectofusin®-1; also recorded: more efficient than Vectofusin®-1 | 14 | approx. 76% | comparable to EF-C | 20-30% | dose-dependably enhancement; also recorded: comparable to EF-C
RTIFIISMYK (fibril peptide 34) [RK-10] |  |  |  |  |  |  |  |  |  | 20-30% | 
